Laboratory results: PubChem BioAssay AID2685 (National Center for Advancing Translational Sciences (NCATS), 2010)
This is one part of the list. These are further read-outs of the screen, such as a control signal, another cell line or another target. No call is given for them. Most of these compounds were active or inconclusive in the main read-out, so they are no random draw. Words in brackets tell the shape of the fitted curve; partial curves, single points and poor fits give uncertain potencies.

Assay: qHTS Assay for Lipid Storage Modulators in Drosophila S3 Cells;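 as to cell number change: cells counted by Cell Tracker Red CMTPX staining in the red channel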
Details: BODIPY lipid droplet fluorescence, 18-24 h; for cell number change: measured here: cell count max response, cells fed with added oleic acid
How it was run: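 Laser-scanning cytometry quantifies lipid droplet accumulation (500–530 nm total intensity; droplet/cell object ratio) in oleic acid-fed (400 uM added) Drosophila S3 cells treated with a concentration series. 20 uM Triacsin C defined 100% inhibition.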

[1] = measured here: cell number channel AC50, cells fed with added oleic acid
[2] = measured here: lipid fluorescence (Fed channel) AC50, cells fed with added oleic acid

SMILES	cell number change [%]	AC50 [1]	AC50 [2]
CCOC(=O)C(CCOc1cccc(CC)c1)C(=O)OCC	13	–	–
CC1CCCN(C(=O)c2ccc3c(c2NCCO)C(=O)c2ccccc2C3=O)C1 (stereo unspecified)	-51.7	29.1 µM [falling, single point]	–
CC1=C(C(=O)Nc2ccccc2)C(c2ccco2)C(C#N)=C(SCC(=O)OC(C)C)N1 (stereo unspecified)	-8.7	–	–
Cc1occc1C(=O)N/N=C/C1=C(N2CCOCC2)C(=C\c2ccc(Cl)cc2Cl)/CC1	-0.669	–	16.4 µM [falling, single point]
CCOc1ncccc1C(=O)Nc1ccc2c(c1)OCCCO2	79.1	10.3 µM [rising, partial curve]	–
CCn1c(NCc2cc(OC)ccc2OC)nc2ccccc21	-0.0288	–	–
CC1CN(Cc2c(O)ccc3c2oc(=O)c2ccccc23)CC(C)O1 (stereo unspecified)	30.6	29.1 µM [rising, single point]	29.1 µM [rising, single point]
O=[N+]([O-])c1cc(-c2nc(-c3ccncc3)no2)ccc1Cl	-26.3	–	0.517 µM [falling, partial curve, poor fit]
CC1C=CCC2C(=O)N(c3ccc(OC(=O)c4cccs4)cc3)C(=O)C12 (stereo unspecified)	11.3	0.82 µM [falling, single point]	–
CCNc1nc(SC(C)C(=O)OC)nc(N(C)C)n1 (stereo unspecified)	64.4	–	–
CC(C)CN(C(=O)COC(=O)C1c2ccccc2Oc2ccccc21)C1CCS(=O)(=O)C1 (stereo unspecified)	30	–	6.51 µM [rising, single point]
CCCS(=O)(=O)N1CCN(C(=O)c2cccc(OC)c2)CC1	1.87	–	3.26 µM [rising, single point]
COc1ccc([C@@H]2C[C@@H](c3ccccc3)Oc3cc(C)cc(C)c32)cc1	-2.7	–	18.4 µM [rising, partial curve, poor fit]
Cc1cc(C(F)(F)F)nc(SCc2ccc(C(=O)O)o2)n1	-3.54	0.651 µM [falling, full curve, poor fit]	0.651 µM [falling, single point]
NC(=O)C(c1cccc(Cl)c1)c1ncc(C(F)(F)F)cc1Cl (stereo unspecified)	10.6	–	18.4 µM [rising, partial curve]
O=C(CCN1C(=O)c2ccccc2S1(=O)=O)Nc1ccccc1	152	–	–
O=[N+]([O-])c1cc(/C=N/O)ccc1N1CCCC1	26.6	–	4.11 µM [rising, full curve]
CC(=O)C1=C(C)OC(N)=C(C#N)C1c1cc2cccc(C)c2nc1Cl (stereo unspecified)	-10.7	–	4.11 µM [falling, partial curve, poor fit]
CC(=O)Nc1ccc(NC(=O)C(C)OC(=O)C2CCCC2)cc1 (stereo unspecified)	2.86	–	0.291 µM [rising, full curve, poor fit]
O=C(O)c1ccccc1C1=Nc2ccc(O)cc2Oc2cc(O)ccc21	9.67	0.00461 µM [falling, full curve, poor fit]	0.731 µM [falling, single point]

SMILES	cell number change [%]	AC50 [1]	AC50 [2]
O=C(Nc1ccc(Cl)cc1)Nc1ccc(Cl)c(Cl)c1	-82.2	8.2 µM [falling, partial curve]	3.66 µM [falling, single point]
O=C(CC1SC(=Nc2ccc(O)cc2)NC1=O)Nc1ccccc1 (stereo unspecified)	17.1	–	0.731 µM [rising, single point]
COc1ccc(C(=O)NC2CC2)cc1OC1CCN(Cc2cc(C)c(C)cc2C)CC1	16.1	–	32.6 µM [rising, partial curve, poor fit]
Cc1cc(C(=O)Nc2ccc(CC(=O)O)cc2)c(C)o1	11.8	–	6.51 µM [falling, single point]
COc1ccccc1CNC(=O)C1CCC(=O)N(CCCc2ccccc2)C1 (stereo unspecified)	-3.06	–	–
CCOC(=O)c1ccc(Oc2nc(NC)nc(Nc3ccccc3)n2)cc1	36.9	0.651 µM [rising, full curve]	0.184 µM [rising, full curve, poor fit]
Cc1cccc(CSC(Nc2ccc(F)cc2)=C(C#N)C#N)c1	-29.3	0.0231 µM [falling, full curve, poor fit]	0.731 µM [falling, full curve]
CC(C)(C)NS(=O)(=O)CC12CCC(CC1=O)C2(C)C (stereo unspecified)	-15.2	–	–
COCCNc1nnnc2c1sc1nc(N3CCOCC3)c3c(c12)CCCC3	-27.1	–	23.1 µM [falling, single point]
O=C(Nc1ccc(S(=O)(=O)Nc2cnc3ccccc3n2)cc1)c1cccc(OC(F)F)c1	–	–	5.17 µM [rising, single point]
CC(=O)Oc1ccc(N2C(=O)C3C4C=CC(CO)(O4)C3C2=O)cc1 (stereo unspecified)	-77.4	29.1 µM [falling, single point]	29.1 µM [falling, single point]
O=C(COc1ccccc1F)Nc1ccc2c(c1)OCCO2	-10.5	–	–
COC(=O)C1=C(C)NC(=O)/C1=C\c1cc(C)n(-c2cccc(C)c2)c1C	–	1.84 µM [rising, partial curve]	2.91 µM [rising, partial curve]
CN1C(=O)C(C(=O)Nc2ccccc2F)c2ccccc21 (stereo unspecified)	84.4	–	0.146 µM [rising, full curve, poor fit]
COC(=O)COc1ccc(S(=O)(=O)NCCC2=CCCCC2)cc1	-58.1	16.4 µM [falling, partial curve, poor fit]	23.1 µM [falling, partial curve]
Cc1ccc(NC(=O)c2ccc(S(=O)(=O)Nc3c(C)n(C)n(-c4ccccc4)c3=O)cc2)nc1	4.19	–	–
O=C(Nc1cccc(C(=O)N2CCCCC2)c1)c1ccccc1Br	20.7	7.31 µM [rising, single point]	29.1 µM [rising, single point]
COc1ccc2[nH]c(=O)c3c(c2c1)OC(C)(C)C=C3	-16.6	–	–
O=C(Cc1nc2ccccc2[nH]1)N/N=C/c1ccccc1	-5.71	–	0.0058 µM [rising, full curve, poor fit]

One compound at a time, from the list above:
O=C(Cc1nc2ccccc2[nH]1)N/N=C/c1ccccc1 in the list: cell number change [%]: -5.71; AC50 [2]: 0.0058 µM [rising, full curve, poor fit]
COCCNc1nnnc2c1sc1nc(N3CCOCC3)c3c(c12)CCCC3 in the list: cell number change [%]: -27.1; AC50 [2]: 23.1 µM [falling, single point]
O=C(COc1ccccc1F)Nc1ccc2c(c1)OCCO2 in the list: cell number change [%]: -10.5
